# Experimental data taken from patent publication US20060058320A1, “[1,2,4] Triazolo[1,5-c]pyrimidine derivatives” (KYOWA HAKKO KOGYO CO., LTD., priority 2002, published 2006).
# At least one read-out could not be matched to a standard name with certainty.
# Test system: CGS 21680-induced catalepsy
# Assay: Activity on CGS 21680-induced catalepsy
# Assay type: in vivo, mice
# Conditions: cases with catalepsy score of 4 points or less in 10 cases; 10 mg/kg orally
# Protocol: Parkinson's disease is a motor disorder based on degeneration and cell death of the nigrostriatal dopaminergic neurons. When CGS 21680 (adenosine A2A receptor agonist) is administered into the intracerebral ventricle, the inhibitory synaptic transmission of GABA in the medium sized spiny neurons in the corpus striatum is inhibited directly via the adenosine A2A receptor [Journal of Neuroscience, vol. 16, p. 605 (1996)]. Accordingly, it is concidered that the adenosine A2A receptor agonists positively regulate the output of the GABAergic neurons from the corpus striatum to the globus pallidus lateralis, and, as a result, catalepsy is induced by the administration of CGS 21680.
# The test was carried out using ten 5-week age male ddY mice (22-25 g in body weight, Japan SLC) per group. CGS 21680 (produced by RBI Co) was dissolved in physiological saline (produced by Otsuka Pharmaceutical Co., Ltd.), and 10 μg/20 μL of the solution was injected into mouse intracerebral ventricle. Each test compound was used by suspending it in distilled water containing 0.3% of polyoxylene (20) sorbitan monooleate (referred to as “Tween 80” hereinafter) (produced by Otsuka Pharmaceutical Co., Ltd.). The suspension containing each test compound or a solution containing no test Compound (distilled water containing 0.3% of Tween 80; used as a control) was orally administered (0.1 mL per 10 g of mouse body weight) 30 minutes before the injection of CGS 21680 into the intracerebral ventricle. One hour after the administration of the each test compound, only forelimbs or only hindlimbs of each mouse were laid on a vertically arranged stand made of acryl and having a size of 4.5 cm in height and 1.0 cm in width to measure catalepsy symptoms. All of the test compounds were administered orally in a dose of 10 mg/kg.
# The criteria of the catalepsy score are shown below.
# The effect was decided by a total catalepsy score of 10 mice in one group (the maximum score: 50 points). When the total score was 40 points or less, the activity of the compounds was decided positive. The number of the animals showing remission of catalepsy was expressed by the number of cases showing a catalepsy score of 4 points or less in 10 cases. The catalepsy remission ratio was expressed as the percentage of the total score in the test compound-administered group to the total score in the control group.
row,SMILES,Number of animals showing remission
1,"CN(CCc1cccnc1)C(=O)c1cc2nc(-c3ccco3)nn2c(N)n1 [Compound 138, 5-Amino-2-(2-furyl)[1,2,4]triazolo[1,5-c]pyrimidine-7-carboxylic acid {N-methyl-N-[2-(3-pyridyl)ethyl]}amide]",9
2,"CC1CCN(C(=O)c2cc3nc(-c4ccco4)nn3c(N)n2)CC1 [Compound 143, 5-Amino-2-(2-furyl)[1,2,4]triazolo[1,5-c]pyrimidin-7-yl 4-methylpiperidino ketone]",10
3,"COC1CCN(C(=O)c2cc3nc(-c4ccco4)nn3c(N)n2)CC1 [Compound 144, 5-Amino-2-(2-furyl)[1,2,4]triazolo[1,5-c]pyrimidin-7-yl 4-methoxypiperidino ketone]",9
4,"Nc1nc(C(=O)N2CCC(O)(Cc3ccccc3)CC2)cc2nc(-c3ccco3)nn12 [Compound 162, 5-Amino-2-(2-furyl)[1,2,4]triazolo[1,5-c]pyrimidin-7-yl 4-benzyl-4-hydroxypiperidino ketone]",8
